From patent publication US12491217B2, “Compositions and methods for promoting healthy neural development in an unborn baby” (The Regents of the University of California, priority 2019, dated 2025)

Experiment: Metabolomics of fetal brain at E14.5
Format: in vivo, C57Bl/6J mice
Conditions: E14.5 fetal brain metabolite level; for fold of change ABX/SPF: ANOVA contrast ABX vs SPF; for fold of change GF/ABX: ANOVA contrast GF vs ABX; for fold of change GF/SPF: ANOVA contrast GF vs SPF; for fold of change GF/Sp: ANOVA contrast GF vs Sp; for fold of change Sp/ABX: ANOVA contrast Sp vs ABX; for fold of change Sp/SPF: ANOVA contrast Sp vs SPF

| Compound | fold of change ABX/SPF | fold of change GF/ABX | fold of change GF/SPF | fold of change GF/Sp | fold of change Sp/ABX | fold of change Sp/SPF |
| --- | --- | --- | --- | --- | --- | --- |
| CCCCCCCC/C=C\CCCCCCCC(=O)OCC(O)COP(=O)(O)OCC(O)CO (stereo not drawn) [compound 2203] | 0.98 | 0.65 | 0.64 | 1.07 | 0.61 | 0.60 |
| CCCCCCCCCCCCCCCC(=O)OCC(O)COP(=O)(O)OC1C(O)C(O)C(O)C(O)C1O (stereo not drawn) [compound 2206] | 0.59 | 0.87 | 0.52 | 0.84 | 1.04 | 0.61 |
| CCCCCCCCCCCCCCCCCC(=O)OCC(O)COP(=O)(O)OC1C(O)C(O)C(O)C(O)C1O (stereo not drawn) [compound 2209] | 0.63 | 0.85 | 0.53 | 0.88 | 0.96 | 0.60 |
| CCCCCCCC/C=C\CCCCCCCC(=O)OCC(O)COP(=O)(O)OC1C(O)C(O)C(O)C(O)C1O (stereo not drawn) [compound 2211] | 0.61 | 1.02 | 0.62 | 0.84 | 1.22 | 0.74 |
| CCCCC/C=C\C/C=C\C/C=C\C/C=C\CCCC(=O)OCC(O)COP(=O)(O)OC1C(O)C(O)C(O)C(O)C1O (stereo not drawn) [compound 2217] | 0.91 | 0.56 | 0.51 | 0.92 | 0.61 | 0.56 |
| CCCCCCCC/C=C\CCCCCCCC(=O)OC(CO/C=C\CCCCCCCCCCCCCC)COP(=O)(O)OCCN (stereo not drawn) [compound 2310] | 1.04 | 0.86 | 0.90 | 1.02 | 0.85 | 0.88 |
| CCCCC/C=C\C/C=C\CCCCCCCC(=O)OC(CO/C=C\CCCCCCCCCCCCCC)COP(=O)(O)OCCN (stereo not drawn) [compound 2311] | 1.23 | 0.83 | 1.01 | 1.20 | 0.69 | 0.84 |
| CCCCCCCCCCCCCC/C=C\OC[C@H](COP(=O)([O-])OCC[N+](C)(C)C)OC(=O)CCCCCCCCCCCCCCC [compound 2312] | 0.73 | 0.91 | 0.67 | 0.87 | 1.05 | 0.77 |
| CCCCCCC=CCCCCCCCC(=O)OC(COC=CCCCCCCCCCCCCCC)COP(=O)([O-])OCC[N+](C)(C)C (stereo not drawn) [compound 2313] | 0.81 | 0.93 | 0.75 | 0.86 | 1.08 | 0.87 |
| CCCCCC=CCC=CCC=CCC=CCCCC(=O)OC(COC=CCCCCCCCCCCCCCC)COP(=O)(O)OCCN (stereo not drawn) [compound 2314] | 0.99 | 0.89 | 0.88 | 1.07 | 0.83 | 0.82 |
| CCCCCCCC/C=C\CCCCCCCC(=O)OC(CO/C=C\CCCCCCCCCCCCCCCC)COP(=O)(O)OCCN (stereo not drawn) [compound 2318] | 1.01 | 0.81 | 0.81 | 0.97 | 0.84 | 0.84 |
| CCCCC/C=C\C/C=C\C/C=C\C/C=C\CCCC(=O)OC(CO/C=C\CCCCCCCCCCCCCCCC)COP(=O)(O)OCCN (stereo not drawn) [compound 2327] | 0.92 | 0.89 | 0.82 | 1.03 | 0.87 | 0.80 |
| CCCCCCCCCCCCCCC=COCC(O)COP(=O)(O)OCCN (stereo not drawn) [compound 2343] | 0.73 | 0.90 | 0.65 | 0.85 | 1.05 | 0.77 |
| CCCCCCCCC=CCCCCCCC=COCC(O)COP(=O)(O)OCCN (stereo not drawn) [compound 2345] | 0.91 | 0.77 | 0.70 | 0.88 | 0.87 | 0.79 |
| CCCCCCCCCCCCCCCC/C=C\OCC(O)COP(=O)(O)OCCN (stereo not drawn) [compound 2347] | 0.75 | 0.84 | 0.63 | 0.83 | 1.01 | 0.76 |
| CCCCCCCC/C=C\CCCCCC/C=C\OCC(COP(=O)(O)OCCN)OC(=O)CCCCCCC/C=C\CCCCCCCC (stereo not drawn) [compound 2348] | 1.16 | 0.84 | 0.97 | 1.09 | 0.77 | 0.89 |
| O=P(O)(O)OCC(O)CO (stereo not drawn) [compound 2351] | 0.79 | 0.86 | 0.68 | 1.06 | 0.81 | 0.64 |
| O=P(O)(OCC(O)CO)OCC(O)CO (stereo not drawn) [compound 2356] | 0.66 | 1.17 | 0.77 | 1.02 | 1.14 | 0.76 |
| CCCCCCCCCCCCCC(=O)OCC(O)CO (stereo not drawn) [compound 2357] | 0.91 | 0.88 | 0.80 | 1.12 | 0.78 | 0.72 |
| CCCCCCCCCCCCCCCC(=O)OCC(O)CO (stereo not drawn) [compound 2360] | 0.94 | 0.74 | 0.69 | 0.97 | 0.76 | 0.71 |
| CCCCCC/C=C\CCCCCCCC(=O)OCC(O)CO (stereo not drawn) [compound 2361] | 1.00 | 0.75 | 0.75 | 1.24 | 0.61 | 0.61 |
| CCCCCCCC/C=C\CCCCCCCC(=O)OCC(O)CO (stereo not drawn) [compound 2364] | 0.95 | 0.80 | 0.76 | 1.03 | 0.77 | 0.74 |
| CCCCC/C=C\C/C=C\C/C=C\C/C=C\CCCC(=O)OCC(O)CO (stereo not drawn) [compound 2371] | 1.02 | 0.73 | 0.74 | 1.49 | 0.49 | 0.50 |
